The supplement of paper PMC10032668
± gives the standard deviation of the averaged measurements. This is one part of the list. The list holds hits alone, and they repeat only in part.

The chains behind the UniProt entries cited, without tags or fusion partners.
EIF4E, P06730, UniProt P06730, whole entry: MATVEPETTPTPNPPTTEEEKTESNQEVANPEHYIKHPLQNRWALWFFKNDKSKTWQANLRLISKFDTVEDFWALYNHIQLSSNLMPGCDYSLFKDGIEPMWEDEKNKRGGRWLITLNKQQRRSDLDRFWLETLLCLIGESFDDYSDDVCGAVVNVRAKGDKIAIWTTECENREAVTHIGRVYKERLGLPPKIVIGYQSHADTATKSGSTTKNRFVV
FGF2, P09038, UniProt P09038, whole entry: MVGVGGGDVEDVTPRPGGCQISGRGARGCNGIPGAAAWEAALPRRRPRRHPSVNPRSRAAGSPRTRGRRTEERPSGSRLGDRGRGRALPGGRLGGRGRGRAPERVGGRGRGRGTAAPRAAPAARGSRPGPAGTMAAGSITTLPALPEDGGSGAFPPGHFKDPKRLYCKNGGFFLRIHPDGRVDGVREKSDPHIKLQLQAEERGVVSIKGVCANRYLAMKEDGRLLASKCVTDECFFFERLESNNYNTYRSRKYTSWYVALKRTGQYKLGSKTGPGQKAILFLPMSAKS
GNL1, P36915, UniProt P36915, whole entry: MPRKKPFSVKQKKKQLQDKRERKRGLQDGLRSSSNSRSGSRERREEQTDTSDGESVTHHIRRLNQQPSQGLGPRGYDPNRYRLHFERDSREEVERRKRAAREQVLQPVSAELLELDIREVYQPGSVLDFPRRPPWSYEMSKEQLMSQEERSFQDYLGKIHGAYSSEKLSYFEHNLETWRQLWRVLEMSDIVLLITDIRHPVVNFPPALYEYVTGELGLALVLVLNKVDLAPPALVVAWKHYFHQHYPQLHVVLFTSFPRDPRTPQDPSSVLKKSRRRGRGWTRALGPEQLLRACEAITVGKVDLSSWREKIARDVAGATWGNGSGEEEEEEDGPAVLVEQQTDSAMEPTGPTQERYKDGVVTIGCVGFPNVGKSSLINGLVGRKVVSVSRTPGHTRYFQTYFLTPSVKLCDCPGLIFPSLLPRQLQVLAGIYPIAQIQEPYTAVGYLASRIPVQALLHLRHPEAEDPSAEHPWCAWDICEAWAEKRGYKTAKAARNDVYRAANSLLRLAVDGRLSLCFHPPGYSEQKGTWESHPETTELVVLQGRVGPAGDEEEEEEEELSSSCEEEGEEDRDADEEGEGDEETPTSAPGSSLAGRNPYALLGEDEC
MRGBP, Q9NV56, UniProt Q9NV56, whole entry: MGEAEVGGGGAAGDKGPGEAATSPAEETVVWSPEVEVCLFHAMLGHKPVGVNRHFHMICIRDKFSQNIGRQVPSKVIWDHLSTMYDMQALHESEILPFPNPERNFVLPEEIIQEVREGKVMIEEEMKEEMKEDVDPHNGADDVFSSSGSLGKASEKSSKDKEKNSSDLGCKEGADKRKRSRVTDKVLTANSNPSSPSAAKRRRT
PCBP2, Q15366, UniProt Q15366, whole entry: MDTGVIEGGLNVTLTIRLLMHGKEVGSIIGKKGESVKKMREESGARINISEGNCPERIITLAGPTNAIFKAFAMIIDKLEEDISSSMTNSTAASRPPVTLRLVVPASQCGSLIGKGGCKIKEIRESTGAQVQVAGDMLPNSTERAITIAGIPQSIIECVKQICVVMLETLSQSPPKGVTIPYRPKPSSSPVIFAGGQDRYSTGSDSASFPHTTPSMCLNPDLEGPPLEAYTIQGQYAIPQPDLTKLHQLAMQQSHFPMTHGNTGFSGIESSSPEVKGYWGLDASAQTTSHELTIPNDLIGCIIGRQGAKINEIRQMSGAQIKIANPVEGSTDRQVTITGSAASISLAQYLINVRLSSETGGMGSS
RAB7A, P51149, UniProt P51149, whole entry: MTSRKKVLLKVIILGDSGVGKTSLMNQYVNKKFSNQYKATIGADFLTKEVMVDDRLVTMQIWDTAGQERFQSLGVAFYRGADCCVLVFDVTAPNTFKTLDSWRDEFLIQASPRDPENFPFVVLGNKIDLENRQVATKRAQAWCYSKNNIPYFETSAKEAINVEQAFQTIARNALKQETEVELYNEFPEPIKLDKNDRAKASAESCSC

Columns and labels:
Test in all cases: PRISMA enrichment of interactor (LFQ) in peptide spot vs all other peptide spots (log2 fold change); higher = stronger / more specific binding of the interactor to the peptide
[1] = biological target: C8orf33, Q9H7E9
Description: (§1)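 PRISMA: 15-aa overlapping tiles (offset 8 aa) of 60 microproteins, plus SOS1/GLUT1 control peptides, were spot-synthesized on cellulose membranes in triplicate. Membranes were incubated with benzonase-treated HEK293T lysate, and bound proteins were identified by LC-MS/MS with LFQ. Enrichment is the log2 fold change of each protein in one spot versus all other spots. Only interactors passing the significance cutoff are listed.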

[2] = biological target: EIF4E, P06730
Description: as §1

[3] = biological target: MRPL14, Q6P1L8
Description: as §1

[4] = biological target: RAD50, Q92878
Description: as §1

[5] = biological target: RNF213, Q63HN8
Description: as §1

[6] = biological target: C1QBP, Q07021
Description: as §1

[7] = biological target: MED15, Q96RN5
Description: as §1

[8] = biological target: NAP1L1, P55209
Description: as §1

[9] = biological target: RPUSD4, Q96CM3
Description: as §1

[10] = biological target: CAND2, O75155
Description: as §1

[11] = biological target: CSNK1A1, P48729
Description: as §1

[12] = biological target: DARS2, Q6PI48
Description: as §1

[13] = biological target: DDX42, Q86XP3
Description: as §1

[14] = biological target: EEF1B2, P24534
Description: as §1

[15] = biological target: FGF2, P09038
Description: as §1

[16] = biological target: GNL1, P36915
Description: as §1

[17] = biological target: MRGBP, Q9NV56
Description: as §1

[18] = biological target: MRPL27, Q9P0M9
Description: as §1

[19] = biological target: TTC27, Q6P3X3
Description: as §1

[20] = biological target: C2CD3, Q4AC94
Description: as §1

[21] = biological target: CCAR1, Q8IX12
Description: as §1

[22] = biological target: CFAP36, Q96G28
Description: as §1

[23] = biological target: CNN3, Q15417
Description: as §1

[24] = biological target: COG5, Q9UP83
Description: as §1

[25] = biological target: DNAJB11, Q9UBS4
Description: as §1

[26] = biological target: GTF2I, P78347
Description: as §1

[27] = biological target: HNRNPH2, P55795
Description: as §1

[28] = biological target: NUP62, P37198
Description: as §1

[29] = biological target: PCBP2, Q15366
Description: as §1

[30] = biological target: PTBP3, O95758
Description: as §1

[31] = biological target: RAB7A, P51149
Description: as §1

[32] = biological target: SDF2L1, Q9HCN8
Description: as §1

[33] = biological target: SUGT1, Q9Y2Z0
Description: as §1

B1: TUG1 (peptide)
chain: PGLVGRRNGRAVDRA
PRISMA enrichment of interactor (log2) [1]: 4.48
PRISMA enrichment of interactor (log2) [2]: 4.21
PRISMA enrichment of interactor (log2) [3]: 6.09
PRISMA enrichment of interactor (log2) [4]: 5.44
PRISMA enrichment of interactor (log2) [5]: 6.31

B2: TUG1 (peptide)
chain: PRRAPGGRWRSRRVF
PRISMA enrichment of interactor (log2) [6]: 6.14
PRISMA enrichment of interactor (log2) [7]: 4.3
PRISMA enrichment of interactor (log2) [8]: 5.05 ± 0.5
PRISMA enrichment of interactor (log2) [9]: 4.75

B3: RP11-432J24.5_2 (peptide)
chain: FQNVFVLHMTLLWKK
PRISMA enrichment of interactor (log2) [10]: 5.46
PRISMA enrichment of interactor (log2) [11]: 6.6
PRISMA enrichment of interactor (log2) [12]: 4.41
PRISMA enrichment of interactor (log2) [13]: 7.3
PRISMA enrichment of interactor (log2) [14]: 5.21
PRISMA enrichment of interactor (log2) [15]: 3.79
PRISMA enrichment of interactor (log2) [16]: 4.71
PRISMA enrichment of interactor (log2) [17]: 4.35
PRISMA enrichment of interactor (log2) [18]: 7.36
PRISMA enrichment of interactor (log2) [19]: 4.66

B4: DANCR (peptide)
chain: ANSMQLTLTLNTLQL
PRISMA enrichment of interactor (log2) [20]: 5.34
PRISMA enrichment of interactor (log2) [21]: 4.96
PRISMA enrichment of interactor (log2) [22]: 6.49
PRISMA enrichment of interactor (log2) [23]: 5.49
PRISMA enrichment of interactor (log2) [24]: 4.38
PRISMA enrichment of interactor (log2) [25]: 4.32
PRISMA enrichment of interactor (log2) [26]: 4.54
PRISMA enrichment of interactor (log2) [27]: 4.51
PRISMA enrichment of interactor (log2) [28]: 4.08
PRISMA enrichment of interactor (log2) [29]: 5.73
PRISMA enrichment of interactor (log2) [30]: 4.18
PRISMA enrichment of interactor (log2) [31]: 5.61
PRISMA enrichment of interactor (log2) [32]: 4.12
PRISMA enrichment of interactor (log2) [33]: 3.6
